# Measured values taken from paper PMC3304006 (Journal of the American Chemical Society, 2012).
# What was measured:
# [1] = target: Lys-D-Ala-D-Ala peptide fused to ubiquitin1–75 (Homo sapiens, UniProt P0CG47); assay: SPR binding to ubiquitin carrier protein-peptide fusion
# [2] = target: Lys-D-Ala-D-Ala peptide fused to T4 lysozyme wt* L164A (Enterobacteria phage T4, UniProt P00720, C54T/C97A/L164A); assay: biochemical; type: binding
compound,measurement,setting,value
CN[C@H](CC(C)C)C(=O)N[C@H]1C(=O)N[C@@H](CC(N)=O)C(=O)N[C@H]2C(=O)N[C@H]3C(=O)N[C@H](C(=O)N[C@H](C(=O)O)c4cc(O)cc(O)c4-c4cc3ccc4O)[C@H](O)c3ccc(c(Cl)c3)Oc3cc2cc(c3O[C@@H]2O[C@H](CO)[C@@H](O)[C@H](O)[C@H]2O[C@H]2C[C@](C)(N)[C@H](O)[C@H](C)O2)Oc2ccc(cc2Cl)[C@H]1O [Vancomycin],Kd,[1],3.6 ± 0.2 µM
same,Kd,[2],3.6 ± 0.7 µM
